Source: patent publication US20020192774A1, “Method for processing lignocellulosic material” (priority 2000, published 2002)

How the values were obtained:
[1] = system: Thermoanaerobacter mathranii A3M4; test: Potential fermentation inhibitors during T. mathranii A3M4 fermentation of wet oxidised wheat straw medium; settings: for concentration at T. mathranii, end / Ww-treatment, start: after five days at 70° C., pH 6.8; for change of concentration after xylose fermentation by T. mathranii: thermophilic fermentation step, in words
Saccharomyces cerevisiae = test: Potential fermentation inhibitors during S. cerevisiae fermentation of wet oxidised wheat straw medium; settings: for concentration at S. cerevisiae, end / T. mathranii, start: after five days at 30° C., pH 6.0; for concentration at S. cerevisiae, start: wet oxidised wheat straw medium 60 g/l straw, before yeast fermentation
[2] = system: consortium of thermophilic methanogenic Archaea; test: Thermophilic anaerobic wastewater treatment (methane production) of ethanol fermentation effluent; settings: after anaerobic wastewater treatment at 55° C.

O=C(O)c1ccc(O)cc1 [4-hydroxybenzoic acid]
concentration at T. mathranii, end / Ww-treatment, start [1]: 26.0 mg/L
change of concentration after xylose fermentation by T. mathranii [1]: increase in the concentration

CC(=O)O [Acetic acid]
concentration at T. mathranii, end / Ww-treatment, start [1]: 33.2 mg/L

COc1cc(C(C)=O)cc(OC)c1O [Acetosyringone, 4-hydroxy-3,5dimethoxyacetophenone]
concentration at T. mathranii, end / Ww-treatment, start [1]: 20.0 mg/L

COc1cc(C(C)=O)ccc1O [Acetovanillione]
concentration at T. mathranii, end / Ww-treatment, start [1]: 4.9 mg/L

COc1cc(C(=O)O)cc(OC)c1O [Syringic acid]
concentration at T. mathranii, end / Ww-treatment, start [1]: 19.0 mg/L
change of concentration after xylose fermentation by T. mathranii [1]: reverted to its initial level
concentration at S. cerevisiae, end / T. mathranii, start (Saccharomyces cerevisiae): 16.1 mg/L
metabolised by S. cerevisiae (Saccharomyces cerevisiae; mesophilic hexose fermentation step, in words): partly metabolised
concentration at S. cerevisiae, start (Saccharomyces cerevisiae): 20.2 mg/L
concentration at Ww-treatment, end [2]: 0.1 mg/L

COc1cccc(OC)c1O [Syringol]
concentration at T. mathranii, end / Ww-treatment, start [1]: 3.6 mg/L

Oc1ccccc1 [phenol]
concentration at T. mathranii, end / Ww-treatment, start [1]: 3.8 mg/L
concentration at S. cerevisiae, end / T. mathranii, start (Saccharomyces cerevisiae): 3.9 mg/L
concentration at S. cerevisiae, start (Saccharomyces cerevisiae): 4.5 mg/L
concentration at Ww-treatment, end [2]: 0.9 mg/L

COc1cc(C=O)cc(OC)c1O [syringaldehyd]
concentration at T. mathranii, end / Ww-treatment, start [1]: 2.6 mg/L
concentration at S. cerevisiae, end / T. mathranii, start (Saccharomyces cerevisiae): 3.2 mg/L
concentration at S. cerevisiae, start (Saccharomyces cerevisiae): 3.6 mg/L
concentration at Ww-treatment, end [2]: 0.3 mg/L
